Results deposited as PubChem BioAssay AID1259405 (NCATS, 2018)

Purpose: 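Mouse-designed siRNAs used to find CHO productivity engineering targets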 (primary screen)
Cell system: Chinese hamster CHO-K1 ovary cells with stable secreted eGFP expression
Reagent: single siRNA against mouse genes, 0.8 pmol siRNA per well (2 µl of 400 nM stock)
Duration: 3 days
Measurement: 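Percent of the per-plate non-targeting control median for intracellular GFP per well by laser scanning cytometry and for cell viability by ATP luminescence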
Scale: GFP, % of control: higher = more GFP per well, higher productivity; viability (ATP), % of control: higher = more viable cells (more ATP)
Hit rule: 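Called active when intracellular GFP, relative to negative control, is at or above 120%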
In all, the deposit lists about 50,000 reagents; this is an unselected part. Of all reagents, about 4,000 (8%) got an active call. 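Mouse siRNA library applied to hamster cells; one well for each siRNA.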 A number with no mark means an inactive call. Reagents against one gene are numbered here.

Ptpdc1 (protein tyrosine phosphatase domain containing 1) #1 scored GFP, % of control 91.1; viability (ATP), % of control 85.8. Ptpdc1 (protein tyrosine phosphatase domain containing 1) #2 gave GFP, % of control 91.2; viability (ATP), % of control 88.2. After knock-down of Ptpdc1 (protein tyrosine phosphatase domain containing 1) #3 the results were GFP, % of control 89; viability (ATP), % of control 70.8. Depletion of Serpinb9 (serine (or cysteine) peptidase inhibitor, clade B, member 9) #1 gave: GFP, % of control 73.4; viability (ATP), % of control 88.7. After knock-down of Serpinb9 (serine (or cysteine) peptidase inhibitor, clade B, member 9) #2 the results were GFP, % of control 49.4; viability (ATP), % of control 69.4. Serpinb9 (serine (or cysteine) peptidase inhibitor, clade B, member 9) #3 gave GFP, % of control 73.4; viability (ATP), % of control 93.9.

Knock-down of F9 (coagulation factor IX) #1 resulted in: GFP, % of control 15.6; viability (ATP), % of control 36.9. After knock-down of F9 (coagulation factor IX) #2, the record shows GFP, % of control 66.1; viability (ATP), % of control 78.4. F9 (coagulation factor IX) #3 gave GFP, % of control 57.1; viability (ATP), % of control 67.6. Slc10a7 #1 scored GFP, % of control 143 (active); viability (ATP), % of control 88.9. Depletion of Slc10a7 #2 gave: GFP, % of control 79.7; viability (ATP), % of control 89.4. For Slc10a7 #3, the values are GFP, % of control 79.9; viability (ATP), % of control 62.9.

Depletion of Ttpa (tocopherol (alpha) transfer protein) #1 gave: GFP, % of control 71.7; viability (ATP), % of control 84.2. For Ttpa (tocopherol (alpha) transfer protein) #2, the values are GFP, % of control 87.1; viability (ATP), % of control 94.7. Ttpa (tocopherol (alpha) transfer protein) #3 gave GFP, % of control 56.1; viability (ATP), % of control 94.9. Against Manea (mannosidase, endo-alpha) #1, the entry reads GFP, % of control 87.9; viability (ATP), % of control 72.5. Manea (mannosidase, endo-alpha) #2 showed GFP, % of control 91.2; viability (ATP), % of control 63. After knock-down of Manea (mannosidase, endo-alpha) #3 the results were GFP, % of control 58.6; viability (ATP), % of control 59.9.
